Source: ChEMBL document CHEMBL3988442, “University of Dundee, Small-Polar-MMV Screening Library” (2021).

Values are the deposited “Percent Effect”, in %.
The record does not define 0% and 100%; most values in the screen are far below 50% and negative numbers occur (in some assays of this library far below -100).
The compounds are a random part of those screened.
Two or more numbers in one place are separate tests of the same structure; such repeats can differ widely.

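Phenotypic screen: M. tuberculosis growth, glucose 7H9 medium, 3 days; the read-out is not stated. Concentration: 50 µM. Higher reads as more growth inhibition (inferred: compounds with an IC50 in retests scored well above the rest). Of about 69,000 compounds tested this way, about 760 (1.1%) reached 50% or more in at least one test.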

SMILES	Percent Effect
Cn1cc(-c2noc(C3(C)CCOCC3)n2)cn1	-44.99%
CC(C)Cc1cc(C(=O)N2CCC(Oc3cccnc3)CC2)n(C)n1	26.24%
COc1cc(Br)c(CNC2CCCNC2=O)cc1OC.Cl (centres unmarked)	-18.02%
CCn1c(NCc2cccnc2)nc2c(C)nn(C)c2c1=O	-4.635%
CSc1ccc(C(=O)N2CCOCC2c2c(C)n[nH]c2C)o1 (centres unmarked)	-40.61%
O=C(OC1CCC1)c1ncccc1OCC(F)(F)F	9.606%
Cc1noc(C)c1CCCNC(=O)Nc1ccc2c(c1)CC(=O)N2	0.3034% & -1.414%
Cc1cccc(C(C(=O)NCCCc2ccncc2)N(C)C)c1 (centres unmarked)	-5.555%
[H][C@]12CCN(C(=O)Cc3ccc4c(c3)CCCC4)CC[C@]1([H])N(C)C(=O)CO2	-6.135%
Cc1cccc(C(C(=O)N(C)Cc2ccco2)N(C)C)c1 (centres unmarked)	-28.59%
CN1CCC2(CC1)CN(C(=O)c1ccncc1)Cc1ccccc12	0.5424%
Cc1cccc(C(=O)N2CCCCC2c2nc3cc(F)ccc3[nH]2)n1 (centres unmarked)	34.26%
CCC(CO)N(C/C(C)=C/c1ccco1)Cc1ccsc1 (centres unmarked)	7.078%
Cc1nn(C)c(Cl)c1C1CCCN1C(=O)c1ccnn1C (centres unmarked)	-4.714%
Cc1cc(CNc2ccc(CC(=O)N(C)c3ccccc3)cc2)no1	-20.15%
CN(C)[C@@H]1CCN(S(C)(=O)=O)[C@H]1Cc1ccccc1	-9.173%
O=C(CCc1ccsc1)NC1CCN(c2cccc(F)c2)CC1	26.2%
[H][C@@]12CCCO[C@]1([H])[C@@H](NS(C)(=O)=O)CN2C(=O)c1cscn1	-20.87%
Cc1ccc(OCC(=O)NC2CCN(S(C)(=O)=O)CC2)cc1	-17.05%
Cc1ccc(C(=O)N2CCC3(CCCN(c4ccc(C)nn4)C3)C2)cn1 (centres unmarked)	-30.89%
COCCCC1(C(=O)O)CCCN(C(=O)c2ccc(Cl)cc2F)C1 (centres unmarked)	18.64%
N#Cc1ccnc(N2CCN(C(=O)NC3CCS(=O)(=O)C3)CC2)c1 (centres unmarked)	-2.019%
CCc1ccsc1CNC(=O)CNC(=O)C(C)(C)C	-17.57%
Cc1cnc(N2CCc3onc(COc4cccnc4)c3C2)nc1	20.44%
CCn1ncc(NC(=O)c2cc(C3CC3)nc3c2c(C)nn3C)c1C	-13.24%
CC1CN(CC(=O)NCc2ccccc2)CCN1Cc1nccn1C (centres unmarked)	-1.593%
CN(Cc1n[nH]c2c1CCC2)C(=O)CCc1cc2n(n1)CCNC2	-27.77%
O=C(C1CCC2(CCN(CC3CCOCC3)CC2)O1)N1CCCC1.O=C(O)C(F)(F)F (centres unmarked)	13.24%
O=C(COCC1CC1)N1CCSCC1	17.66%
O=C1NCC2(CCCN(C(=O)c3c[nH]nc3C3CCCCC3)C2)O1 (centres unmarked)	-1.567% & -6.275%
CCC(CC)(CNC(=O)OC(C)(C)C)NC(=O)C1CCOCC1	-12.3% & 3.215%
N#Cc1ccc(OCCNc2cccc(C(=O)N3CCOCC3)c2)cc1	-7.31%
CCOCc1nc(N2CCOCC2)sc1C(=O)NCc1ccco1	-10.23%
C=Cc1cccc(CN2CCCn3nc(CNS(C)(=O)=O)cc3C2)c1	-18.38%
CCc1noc(C)c1C(=O)NCC(c1ccc(C)cc1)N(C)C (centres unmarked)	-17.56%
COc1c(CNCCNC(=O)c2cccs2)c(C)nn1C	-10.45% & -29.21%
CCN1CCCC(CN2CCn3nc(CNC(=O)N(C)C)cc3C2)C1 (centres unmarked)	-10.13%
O=C(O)c1cc2c(nc1-c1ccncc1)CCN(Cc1ccoc1)CC2	1.717%
O=C(c1cc[nH]n1)N1CCCC1c1ccccn1 (centres unmarked)	-14.09%
CSCc1cc(F)ccc1CNC(=O)N1CCC(CO)CC1	-1.854%
Cc1cccnc1CN1CCN(C(=O)c2cnn(C(C)C)c2)CC1	-24.07%
Cc1cc(C)c2[nH]c(=O)c(CN3CCC(O)(CN(C)C)C3)cc2c1 (centres unmarked)	23.06%
CCN(CC(=O)Nc1cc(Cl)ccc1C)C(=O)c1ccncc1	-0.2074%
CCN(CC)C(=O)CCNC(=O)c1c[nH]c2ccc(OC)cc12	-6.785%
COC1CCCN(C2CCN(c3cccc(-c4csc(C)n4)c3)CC2)C1 (centres unmarked)	26.82%
Cc1cc(N2CCCC2c2nnc3n2CCCCC3)nc(N)n1 (centres unmarked)	-2.556%
O=C(NCCN1CCCCC1)c1ccoc1	5.126%
CCCn1ccnc1CN1CC[C@@H](NC(=O)c2cccnc2)[C@H](O)C1	20.55%
CNC(=O)CN1CCCC12CCN(Cc1c[nH]cn1)CC2.O=C(O)C(F)(F)F.O=C(O)C(F)(F)F	11.06%
CN(C)C(=O)N1CCC(c2nc3ccc(N4CCCC4)cn3n2)CC1.O=C(O)C(F)(F)F	5.973% & 9.966%
O=C1c2ncccc2C(CCO)N1Cc1ccccc1 (centres unmarked)	-7.487%
Cl.O=C(Nc1ccc(F)cc1)C(c1ccccc1)N1CCOCC1 (centres unmarked)	29.23%
Cc1ccc(-c2noc(CN3CCC(N4CCNC4=O)CC3)n2)cc1	12.28%
Cc1ccc(-c2cnnc(NCC3CCOCC3)n2)o1	-11.4% & 0.7368%
Cc1cccc(CN2C(=O)CCC23CCN(C(=O)c2ccco2)CC3)c1	1.246%
Cc1ccc2nc(CNCCCN3CCCC3=O)cc(O)c2c1	-12.64%
[H][C@@]12C[C@@H](O)C[C@]1([H])CN(Cc1cc(C(C)(C)C)ccc1OCC(=O)O)C2	-14.63%
Cc1cc(SC(C)(C)C)ccc1NC(C)C(=O)NC(N)=O (centres unmarked)	-2.699% & -8.238%
Oc1cc(-c2ccccn2)nc(C2CCN(Cc3ccncc3)CC2)n1	4.917%
Cc1nc(CN2CCC(N(C)Cc3noc(C(C)C)n3)C2)oc1C (centres unmarked)	-3.276%
CCNC(=O)c1ccnc(CC2COc3c(cccc3OC)C2)c1 (centres unmarked)	-3.586%
O=C(O)C(F)(F)F.[H][C@]12CCC(=O)N(c3cnn(C)c3)[C@@]1([H])CCN2Cc1csc(C)n1	-50.83%
Cn1nccc1-c1ncc2c(c1C(=O)O)CCN(Cc1ccccc1)C2.O=C(O)C(F)(F)F.O=C(O)C(F)(F)F.O=C(O)C(F)(F)F	-8.673% & -19.18%
CN(CC1(CO)CCCC1)[C@@H]1c2ccccc2C2(CCNCC2)[C@H]1O	5.536%
CC(C)c1cc(CN2CCC(CC(=O)O)CC2)no1	-7.141%
FC(F)(F)C1CCc2nnc(CNCc3ccsc3)n2C1 (centres unmarked)	28%
CCOc1ccc(-n2ccc3nc(N4CCCC4)ncc3c2=O)cc1	-14.46%
O=C1CSc2ccc(C(=O)N3CCCC(n4cccn4)C3)cc2N1 (centres unmarked)	-16.92%
CNc1nc(C(=O)N2CCn3nc(C(=O)OC)cc3C2)cs1	-20.34%
C[C@@H]1CN(C(=O)CCc2nncn2C)C[C@@]1(O)C1CCC1	-16.2%
CC(C)C(=O)N1CCC([C@@H]2C[C@H](C(F)F)n3ncnc3N2)CC1	6.422%
COCC1CN(C(=O)Nc2cc(Br)ccc2F)CCO1 (centres unmarked)	15.77%
COc1ccc(C[C@H]2CN(Cc3ccoc3)CC[C@@H]2OC)cc1.O=C(O)C(F)(F)F	16.33%
CSc1ccccc1-n1ccnc1-c1cn(C2CCNCC2)nn1	-28.7%
CCCN1CCc2c(C(=O)N(C)Cc3ccccn3)nn(C)c2C1.O=C(O)C(F)(F)F.O=C(O)C(F)(F)F.O=C(O)C(F)(F)F	-37.13% & -5.422%
COc1cccc([C@@H](C)n2ccnc2-c2cc3n(n2)CCNC3)c1	7.447% & -12.9%
CC(C)CNC(=O)N1CCOC2(CCNCC2)C1	-3.437% & 3.178%
N#Cc1ccc(NCCC2CCN(CC(F)(F)F)CC2)nc1	39.2% & 32.41%
Cc1cccnc1C(Nc1nccc(C2CCCC2)n1)C1CC1 (centres unmarked)	4.749% & 1.182%
Cc1ncncc1C(=O)N1CCOC(c2nc(C(C)C)n[nH]2)C1 (centres unmarked)	-26.22%
O=C(NC1CCC1)C1=NOC2(CCN(Cc3ccccc3)C2)C1 (centres unmarked)	-33.73%
CC(C)c1cc(CNC(=O)N2CCC(Cc3cnn(C)c3)C2)on1 (centres unmarked)	-3.091%

6 of the entries, repeated:

SMILES,Percent Effect
CCn1c(NCc2cccnc2)nc2c(C)nn(C)c2c1=O,-4.635%
CCc1noc(C)c1C(=O)NCC(c1ccc(C)cc1)N(C)C (centres unmarked),-17.56%
Cc1ccc(-c2noc(CN3CCC(N4CCNC4=O)CC3)n2)cc1,12.28%
Cc1cnc(N2CCc3onc(COc4cccnc4)c3C2)nc1,20.44%
CCCn1ccnc1CN1CC[C@@H](NC(=O)c2cccnc2)[C@H](O)C1,20.55%
COC1CCCN(C2CCN(c3cccc(-c4csc(C)n4)c3)CC2)C1 (centres unmarked),26.82%